These are yes or no findings as the source states them, for the method shown. Some binding calls cover weakened binding; strength is not graded here.
Target: T1, pure recombinant Dll4 (human, UniProt Q9NR61 27-524)
T1 construct: also called recombinant DLL4 ligand; immobilized Dll4
Assay: Biacore A100, antibody over immobilized recombinant Dll4

The chains behind the UniProt entries cited, without tags or fusion partners. Where a name states a change or a piece, a line headed by the entry shows the natural chain unless it says otherwise.
UniProt Q9NR61: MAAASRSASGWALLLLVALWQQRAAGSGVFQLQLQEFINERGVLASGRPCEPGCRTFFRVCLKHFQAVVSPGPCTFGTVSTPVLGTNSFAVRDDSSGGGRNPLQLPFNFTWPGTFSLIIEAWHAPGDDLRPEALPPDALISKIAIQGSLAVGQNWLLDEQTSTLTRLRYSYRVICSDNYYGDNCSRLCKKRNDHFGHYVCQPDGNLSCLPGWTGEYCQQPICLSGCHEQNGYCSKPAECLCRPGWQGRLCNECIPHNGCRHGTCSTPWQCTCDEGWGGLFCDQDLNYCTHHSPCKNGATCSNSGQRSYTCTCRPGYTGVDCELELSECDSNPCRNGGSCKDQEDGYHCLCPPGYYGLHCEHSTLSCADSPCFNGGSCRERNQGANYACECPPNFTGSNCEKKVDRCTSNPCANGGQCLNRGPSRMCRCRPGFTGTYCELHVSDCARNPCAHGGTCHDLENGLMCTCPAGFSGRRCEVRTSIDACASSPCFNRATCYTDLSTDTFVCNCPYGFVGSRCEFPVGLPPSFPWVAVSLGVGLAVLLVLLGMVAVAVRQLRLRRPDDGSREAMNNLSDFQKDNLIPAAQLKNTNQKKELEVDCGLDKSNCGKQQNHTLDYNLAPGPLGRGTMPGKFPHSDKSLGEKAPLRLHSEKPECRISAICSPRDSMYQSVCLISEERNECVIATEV

binding: binds
B1: cSTL4 (antibody, V domains shown)
VH: EVQLQQSGPELVKPGASVKMSCKASGYTFTSYVMHWVKQKPGQGLEWIGYIIPYNDGTKYNEKFKGKATLTSDKSSSTAYMELSSLTSEDSAVYYCARSEDYDHFDYWGQGTTVTVSS
VL: QIVLSQSPVILSASPGEKVTMTCRASSSVSFMHWYQQKPGSSPKPWIYATSNLTSGVPTRFSGSGSGTSYSLTISRVEAEDAATYYCQQWSSNPFTFGSGTKLEIKR
notes: Chimeric form of STL4: mouse VH and VL fused to human IgG heavy and kappa constant regions, expressed from pCAcc vectors; also called chimeric anti-Dll4 antibody; chimeric antibody; not shown: human IgG heavy constant region CH1-H-CH2-CH3; human immunoglobulin kappa light chain constant region

From patent publication US20100303812A1 (SMART TARGETING, published 2010)
